This continues a long series; more values of the same kind are listed elsewhere.
System: corticospinal neurons (CSNs/CSMNs)
Assay: Laser-capture microdissection and Illumina microarray gene expression in corticospinal neurons contralateral to stroke
Format: in vivo, rat
Protocol: In a separate group of animals (n=20), layer V pyramidal cells of the sensorimotor cortex were retrogradely labeled by injecting Alexa-Fluor-488-conjugated cholera toxin B subunit (CTB; 300 U/μl in sterile saline) into the cervical spinal cord. For this, animals were anesthetized with a combination of ketamine and Domitor (medetomidine) and a laminectomy was performed at the cervical level of the spinal cord (C2-C4). CTB was stereotaxically delivered into four sites lateral to the corticospinal tract. Injections (1.3 μl) were spaced 1 mm apart on the rostro-caudal axis, and were made 0.5 mm to the left and right of the midline. After allowing two weeks for transport of the tracer, we performed either sham surgery with no treatment (n=6) or stroke surgery combined with saline (n=3) or inosine (n=4) treatment as described above. Seven days later, animals were decapitated under transient gas anesthesia, brains were removed and rinsed in cold RPMI medium, and a tissue block containing the sensorimotor cortex was dissected and placed in OCT Tissue Tek Medium (Sakura Finetek USA Inc., CA) on dry ice within five minutes of death. Ten μm sections were cut onto precleaned Gold Seal RITE-ON glass slides (Gold Seal Prod-ucts, Portsmouth, N.H.), placed on dry ice, and rapidly stored at −80° C.
Slide-mounted sections were thawed and dehydrated in RNAse-free ethanol gradients and xylene. Retro-gradely labeled, fluorescent cortical pyramidal cells in the undamaged hemisphere were individually captured using the Arcturus VERITAS system. ≧500 cells were collected from each animal and stored in Arcturus extraction buffer at −80° C. Total RNA was extracted from cells using the Micro-to-Midi TotalRNA Purification System (Invitrogen, Carlsbad Calif.) and double-amplified using the TargetAmp 2-Round Aminoallyl-aRNA Amplification kit 1.0 (Epicentre, Madison, Wis.). Amplified RNA was checked for average fragment length using the Agilent RNA 6000 Nano LabChip kit (Agilent Technologies, Santa Clara, Calif.) and then biotinylated and hybridized (1 μg) on Illumina RatRef-12 Expression BeadChip arrays (Illumina, San Diego Calif.), querying the expression of >22,000 RefSeq-curated rat transcripts. Results were obtained from a total of 15 samples representing 6 untreated controls, 4 animals with stroke treated with saline and 5 animals with stroke treated with inosine. Slides were processed and scanned with Illumina BeadStation platform according to the manufacturer protocol.
Raw data was analyzed using Bioconductor packages (www.bioconductor.org, (Gentleman et al., 2004)). Low level quality-control analysis was performed using inter-array Pearson correlation and clustering based on variance. Two arrays (1 saline and 1 inosine-treated) were outliers and were excluded from the analysis. Data was normalized using quantile normalization, and analysis of differential expression was performed using a linear model fitting (LIMMA package, (Smyth, 2005). Differentially expressed genes were classified according to gene ontology using Bioconductor packages and online tools (DAVID, http://david.abcc.ncifcrf.gov/). Pathway analysis was carried out using Ingenuity Pathway Analysis (Ingenuity Systems, www.ingenuity.com).

SMILES: OC[C@H]1O[C@@H](n2cnc3c(O)ncnc32)[C@H](O)[C@@H]1O [inosine]
- Signal Intensity Inosine (LOC498726 ILMN_51854): 465
- Fold-Induction Stroke, ino vs. cntrl (LOC499015 ILMN_53627): 1.79
- Signal Intensity Inosine (LOC499015 ILMN_53627): 849
- Fold-Induction Stroke, ino vs. cntrl (LOC500721 ILMN_54363): 0.57
- Signal Intensity Inosine (LOC500721 ILMN_54363): 263
- Fold-Induction Stroke, ino vs. cntrl (LOC500795 ILMN_57850): 1.66
- Signal Intensity Inosine (LOC500795 ILMN_57850): 1141
- Fold-Induction Stroke, ino vs. cntrl (LOC501102 ILMN_48881): 1.98
- Signal Intensity Inosine (LOC501102 ILMN_48881): 669
- Fold-Induction Stroke, ino vs. cntrl (LOC501140 ILMN_52213): 0.25
- Signal Intensity Inosine (LOC501140 ILMN_52213): 106
- Fold-Induction Stroke, ino vs. cntrl (Lamb2 ILMN_55192): 1.88
- Signal Intensity Inosine (Lamb2 ILMN_55192): 2612
- Fold-Induction Stroke, ino vs. cntrl (Laptm5 ILMN_49562): 2.42
- Signal Intensity Inosine (Laptm5 ILMN_49562): 2101
- Fold-Induction Stroke, ino vs. cntrl (Ler3 ILMN_56245): 1.92
- Signal Intensity Inosine (Ler3 ILMN_56245): 1007
- Fold-Induction Stroke, ino vs. cntrl (Lr8 ILMN_66840): 1.90
- Signal Intensity Inosine (Lr8 ILMN_66840): 2275
- Fold-Induction Stroke, ino vs. cntrl (Lrrk1 ILMN_49754): 1.98
- Signal Intensity Inosine (Lrrk1 ILMN_49754): 903
- Fold-Induction Stroke, ino vs. cntrl (Lsm8 ILMN_63816): 0.44
- Signal Intensity Inosine (Lsm8 ILMN_63816): 343
- Fold-Induction Stroke, ino vs. cntrl (Lyl1 ILMN_51710): 2.44
- Signal Intensity Inosine (Lyl1 ILMN_51710): 604
- Fold-Induction Stroke, ino vs. cntrl (MGC72598 ILMN_66296): 1.92
- Signal Intensity Inosine (MGC72598 ILMN_66296): 1183
- Fold-Induction Stroke, ino vs. cntrl (MGC105797 ILMN_67564): 1.76
- Signal Intensity Inosine (MGC105797 ILMN_67564): 760
- Fold-Induction Stroke, ino vs. cntrl (Ms4a6b ILMN_67686): 2.44
- Signal Intensity Inosine (Ms4a6b ILMN_67686): 588
- Fold-Induction Stroke, ino vs. cntrl (Mus81 ILMN_56191): 2.00
- Signal Intensity Inosine (Mus81 ILMN_56191): 817
- Fold-Induction Stroke, ino vs. cntrl (Nell1 ILMN_52256): 0.49
- Signal Intensity Inosine (Nell1 ILMN_52256): 2125
- Fold-Induction Stroke, ino vs. cntrl (Npc2 ILMN_59161): 1.82
- Signal Intensity Inosine (Npc2 ILMN_59161): 7067
- Fold-Induction Stroke, ino vs. cntrl (Ntrk2 ILMN_62536): 0.56
- Signal Intensity Inosine (Ntrk2 ILMN_62536): 1376
- Fold-Induction Stroke, ino vs. cntrl (Nup35 ILMN_56075): 0.40
- Signal Intensity Inosine (Nup35 ILMN_56075): 357
- Fold-Induction Stroke, ino vs. cntrl (Pdlim7 ILMN_52167): 2.42
- Signal Intensity Inosine (Pdlim7 ILMN_52167): 957
- Fold-Induction Stroke, ino vs. cntrl (Phyhd1 ILMN_52522): 2.19
- Signal Intensity Inosine (Phyhd1 ILMN_52522): 1098
- Fold-Induction Stroke, ino vs. cntrl (Rab9 ILMN_47975): 0.49
- Signal Intensity Inosine (Rab9 ILMN_47975): 278
- Fold-Induction Stroke, ino vs. cntrl (Rhoc ILMN_61063): 2.23
- Signal Intensity Inosine (Rhoc ILMN_61063): 2204
- Fold-Induction Stroke, ino vs. cntrl (Rnf7 ILMN_65606): 0.52
- Signal Intensity Inosine (Rnf7 ILMN_65606): 460
- Fold-Induction Stroke, ino vs. cntrl (Rnf138 ILMN_52424): 0.53
- Signal Intensity Inosine (Rnf138 ILMN_52424): 636
- Fold-Induction Stroke, ino vs. cntrl (Rraga ILMN_48422): 0.37
- Signal Intensity Inosine (Rraga ILMN_48422): 693
- Fold-Induction Stroke, ino vs. cntrl (Slc13a3 ILMN_56539): 2.29
- Signal Intensity Inosine (Slc13a3 ILMN_56539): 888
- Fold-Induction Stroke, ino vs. cntrl (Slc15a3 ILMN_61391): 2.51
- Signal Intensity Inosine (Slc15a3 ILMN_61391): 842
- Fold-Induction Stroke, ino vs. cntrl (Sparc ILMN_55504): 2.50
- Signal Intensity Inosine (Sparc ILMN_55504): 2041
- Fold-Induction Stroke, ino vs. cntrl (Stch ILMN_54952): 0.33
- Signal Intensity Inosine (Stch ILMN_54952): 304
- Fold-Induction Stroke, ino vs. cntrl (Sugt1 ILMN_59830): 0.43
- Signal Intensity Inosine (Sugt1 ILMN_59830): 424
- Fold-Induction Stroke, ino vs. cntrl (Svil ILMN_61732): 2.18
- Signal Intensity Inosine (Svil ILMN_61732): 879
- Fold-Induction Stroke, ino vs. cntrl (Tead3 ILMN_62982): 2.28
- Signal Intensity Inosine (Tead3 ILMN_62982): 721
- Fold-Induction Stroke, ino vs. cntrl (Tsn ILMN_50850): 0.43
- Signal Intensity Inosine (Tsn ILMN_50850): 220
- Fold-Induction Stroke, ino vs. cntrl (Ucp2 ILMN_69305): 2.02
- Signal Intensity Inosine (Ucp2 ILMN_69305): 1632
- Fold-Induction Stroke, ino vs. cntrl (Vim ILMN_54242): 1.66
- Signal Intensity Inosine (Vim ILMN_54242): 1352
- Fold-Induction Stroke, ino vs. cntrl (Znf148 ILMN_53875): 0.47
- Signal Intensity Inosine (Znf148 ILMN_53875): 1149
- Fold-Induction Stroke, ino vs. cntrl (gene P2rxl1 (ILMN_68585), CSMNs contralateral to SMA infarct, stroke + inosine vs control): 0.76
- Fold-Induction Stroke, ino vs. cntrl (gene Tm7sf2 (ILMN_58100), CSMNs contralateral to SMA infarct, stroke + inosine vs control): 0.65

Reference: patent publication US8912144B2, “Method for treating stroke via administration of NEP1-40 and inosine” (Children's Medical Center Corporation, priority 2003, dated 2014)
